# Laboratory results: patent US20220348635A1, “COMPOSITIONS AND METHODS FOR NEUROLOGICAL DISEASES” (Coda Biotherapeutics, Inc., priority 2019, published 2022)
# B1: L131T, S172D in SEQ ID NO: 33: engineered chimeric α7-nAChR/GlyRα1 LGIC receptor: SEQ ID NO: 33 with substitutions L131T and S172D (protein)
# chain: MRCSPGGVWLALAASLLHVSLQGEFQRKLYKELVKNYNPLERPVANDSQPLTVYFSLSLLQIMDVDEKNQVLTTNIWLQMSWTDHYLQWNVSEYPGVKTVRFPDGQIWKPDILLYNSADERFDATFHTNVTVNSSGHCQYLPPGIFKSSCPMDLKNFPMDVQTCKLKFGSWDYGGWSLDLQMQEADISGYIPNGEWDLVGIPGKRSERFYECCKEPYPDVTFTVTMRRRMGYYLIQMYIPSLLIVILSWISFWINMDAAPARVGLGITTVLTMTTQSSGSRASLPKVSYVKAIDIWMAVCLLFVFSALLEYAAVNFVSRQHKELLRFRRKRRHHKSPMLNLFQEDEAGEGRFNFSAYGMGPACLQAKDGISVKGANNSNTTNPPPAPSKSPEEMRKLFIQRAKKIDKISRIGFPMAFLIFNMFYWIIYKIVRREDVHNQ
# modifications: synthetic sequence of chimeric LGIC
# B2: Y115D, L131Q in SEQ ID NO: 33: CR-11 (Chemogenic receptor-11): SEQ ID NO: 33 with substitutions Y115D and L131Q (protein)
# chain: MRCSPGGVWLALAASLLHVSLQGEFQRKLYKELVKNYNPLERPVANDSQPLTVYFSLSLLQIMDVDEKNQVLTTNIWLQMSWTDHYLQWNVSEYPGVKTVRFPDGQIWKPDILLDNSADERFDATFHTNVQVNSSGHCQYLPPGIFKSSCPMDLKNFPMDVQTCKLKFGSWSYGGWSLDLQMQEADISGYIPNGEWDLVGIPGKRSERFYECCKEPYPDVTFTVTMRRRMGYYLIQMYIPSLLIVILSWISFWINMDAAPARVGLGITTVLTMTTQSSGSRASLPKVSYVKAIDIWMAVCLLFVFSALLEYAAVNFVSRQHKELLRFRRKRRHHKSPMLNLFQEDEAGEGRFNFSAYGMGPACLQAKDGISVKGANNSNTTNPPPAPSKSPEEMRKLFIQRAKKIDKISRIGFPMAFLIFNMFYWIIYKIVRREDVHNQ
# modifications: synthetic sequence of chimeric LGIC
# B3: Y115D, S170T in SEQ ID NO: 33: engineered chimeric α7-nAChR/GlyRα1 LGIC receptor: SEQ ID NO: 33 with substitutions Y115D and S170T (protein)
# chain: MRCSPGGVWLALAASLLHVSLQGEFQRKLYKELVKNYNPLERPVANDSQPLTVYFSLSLLQIMDVDEKNQVLTTNIWLQMSWTDHYLQWNVSEYPGVKTVRFPDGQIWKPDILLDNSADERFDATFHTNVLVNSSGHCQYLPPGIFKSSCPMDLKNFPMDVQTCKLKFGTWSYGGWSLDLQMQEADISGYIPNGEWDLVGIPGKRSERFYECCKEPYPDVTFTVTMRRRMGYYLIQMYIPSLLIVILSWISFWINMDAAPARVGLGITTVLTMTTQSSGSRASLPKVSYVKAIDIWMAVCLLFVFSALLEYAAVNFVSRQHKELLRFRRKRRHHKSPMLNLFQEDEAGEGRFNFSAYGMGPACLQAKDGISVKGANNSNTTNPPPAPSKSPEEMRKLFIQRAKKIDKISRIGFPMAFLIFNMFYWIIYKIVRREDVHNQ
# modifications: synthetic sequence of chimeric LGIC
# B4: L131S, S172D in SEQ ID NO: 33: engineered chimeric α7-nAChR/GlyRα1 LGIC receptor: SEQ ID NO: 33 with substitutions L131S and S172D (protein)
# chain: MRCSPGGVWLALAASLLHVSLQGEFQRKLYKELVKNYNPLERPVANDSQPLTVYFSLSLLQIMDVDEKNQVLTTNIWLQMSWTDHYLQWNVSEYPGVKTVRFPDGQIWKPDILLYNSADERFDATFHTNVSVNSSGHCQYLPPGIFKSSCPMDLKNFPMDVQTCKLKFGSWDYGGWSLDLQMQEADISGYIPNGEWDLVGIPGKRSERFYECCKEPYPDVTFTVTMRRRMGYYLIQMYIPSLLIVILSWISFWINMDAAPARVGLGITTVLTMTTQSSGSRASLPKVSYVKAIDIWMAVCLLFVFSALLEYAAVNFVSRQHKELLRFRRKRRHHKSPMLNLFQEDEAGEGRFNFSAYGMGPACLQAKDGISVKGANNSNTTNPPPAPSKSPEEMRKLFIQRAKKIDKISRIGFPMAFLIFNMFYWIIYKIVRREDVHNQ
# modifications: synthetic sequence of chimeric LGIC
# B5: L131D, S172D in SEQ ID NO: 33: engineered chimeric α7-nAChR/GlyRα1 LGIC receptor: SEQ ID NO: 33 with substitutions L131D and S172D (protein)
# chain: MRCSPGGVWLALAASLLHVSLQGEFQRKLYKELVKNYNPLERPVANDSQPLTVYFSLSLLQIMDVDEKNQVLTTNIWLQMSWTDHYLQWNVSEYPGVKTVRFPDGQIWKPDILLYNSADERFDATFHTNVDVNSSGHCQYLPPGIFKSSCPMDLKNFPMDVQTCKLKFGSWDYGGWSLDLQMQEADISGYIPNGEWDLVGIPGKRSERFYECCKEPYPDVTFTVTMRRRMGYYLIQMYIPSLLIVILSWISFWINMDAAPARVGLGITTVLTMTTQSSGSRASLPKVSYVKAIDIWMAVCLLFVFSALLEYAAVNFVSRQHKELLRFRRKRRHHKSPMLNLFQEDEAGEGRFNFSAYGMGPACLQAKDGISVKGANNSNTTNPPPAPSKSPEEMRKLFIQRAKKIDKISRIGFPMAFLIFNMFYWIIYKIVRREDVHNQ
# modifications: synthetic sequence of chimeric LGIC
# B6: Y115D, L131E in SEQ ID NO: 33: engineered chimeric α7-nAChR/GlyRα1 LGIC receptor: SEQ ID NO: 33 with substitutions Y115D and L131E (protein)
# chain: MRCSPGGVWLALAASLLHVSLQGEFQRKLYKELVKNYNPLERPVANDSQPLTVYFSLSLLQIMDVDEKNQVLTTNIWLQMSWTDHYLQWNVSEYPGVKTVRFPDGQIWKPDILLDNSADERFDATFHTNVEVNSSGHCQYLPPGIFKSSCPMDLKNFPMDVQTCKLKFGSWSYGGWSLDLQMQEADISGYIPNGEWDLVGIPGKRSERFYECCKEPYPDVTFTVTMRRRMGYYLIQMYIPSLLIVILSWISFWINMDAAPARVGLGITTVLTMTTQSSGSRASLPKVSYVKAIDIWMAVCLLFVFSALLEYAAVNFVSRQHKELLRFRRKRRHHKSPMLNLFQEDEAGEGRFNFSAYGMGPACLQAKDGISVKGANNSNTTNPPPAPSKSPEEMRKLFIQRAKKIDKISRIGFPMAFLIFNMFYWIIYKIVRREDVHNQ
# modifications: synthetic sequence of chimeric LGIC
# Assays:
# [1] = test system: HEK293T cells; experiment: Cell surface localization, HA tag flow cytometry; type: cell-based; conditions: for Average HA tag %: % HA-tag positive HEK293T cells; for Average HA tag % / Average HA MFI: normalized to SEQ ID NO: 33 control; for Average HA MFI: anti-HA fluorescence intensity; for cell surface localization compared to the parental chimera, HA tag: versus SEQ ID NO: 33
# [2] = test system: HEK293T cells; type: cell-based
Molecule,Average HA tag % [1] [%],Average HA MFI [1],"cell surface localization compared to the parental chimera, HA tag [1]",Normalized AB % [2] [%],Normalized AB MFI [2],"cell surface localization compared to the parental chimera, α-bungarotoxin ([2]; versus SEQ ID NO: 33)"
B1,92,0.93,comparable localization,32,0.75,
B2,62,0.76,,35,0.72,
B3,0,0.80,,17,0.64,
B4,33,0.77,,48,0.83,
B5,58,0.82,,45,0.88,
B6,87,0.92,comparable localization,73,0.90,comparable localization
